Data: article PMC10370356, “Molecular dissection studies of TAC1, a transcription activator of Candida drug resistance genes of the human pathogenic fungus Candida albicans” (Frontiers in Microbiology, 2023)
No constants are given. Whether binding was seen depends on the method and setting. Some results given as binding are weak or reduced against the parent protein; the word gives no strength.

Chains of the proteins cited; added tags and fusions are not shown. Residues count along the entry.
UniProt O43133, residues 2-238: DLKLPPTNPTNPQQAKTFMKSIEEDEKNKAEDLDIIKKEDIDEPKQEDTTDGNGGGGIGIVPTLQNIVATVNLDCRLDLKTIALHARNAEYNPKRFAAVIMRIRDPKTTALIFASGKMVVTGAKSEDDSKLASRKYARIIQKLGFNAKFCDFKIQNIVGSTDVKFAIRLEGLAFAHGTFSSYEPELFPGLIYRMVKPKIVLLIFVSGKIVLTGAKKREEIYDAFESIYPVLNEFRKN
UniProt A0A1D8PN96, residues 880-981: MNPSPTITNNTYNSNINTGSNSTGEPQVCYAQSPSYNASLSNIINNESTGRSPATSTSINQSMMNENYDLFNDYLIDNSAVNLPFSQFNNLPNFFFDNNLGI

Molecular target: Gal4-DBD fusion of C. albicans TBP (yeast two-hybrid bait) (C. albicans) (UniProt O43133)
Assay: two-hybrid; AAD-pACT2 (prey) and TBP-pAS2 (Gal4-DBD bait) in S. cerevisiae PJ69-4A; HIS3 (with 3AT) and LacZ (X-gal) reporters on SD-leu-trp plates

Q: Which binding does the source give for “Tac1-AAD in pACT2 (yeast two-hybrid prey) (from UniProt A0A1D8PN96 880-981) (domain or fragment)” here?
A: binds
